Source: patent publication US10328052B2, “D-proline derivatives as SAP depleting agent” (GlaxoSmithKline Intellectual Property Development Limited, priority 2015, dated 2019)
Some entries share one result that the patent states for a list of compounds.

Amino acid sequences for entries named in this document (tags omitted).
UniProt P08684, whole entry: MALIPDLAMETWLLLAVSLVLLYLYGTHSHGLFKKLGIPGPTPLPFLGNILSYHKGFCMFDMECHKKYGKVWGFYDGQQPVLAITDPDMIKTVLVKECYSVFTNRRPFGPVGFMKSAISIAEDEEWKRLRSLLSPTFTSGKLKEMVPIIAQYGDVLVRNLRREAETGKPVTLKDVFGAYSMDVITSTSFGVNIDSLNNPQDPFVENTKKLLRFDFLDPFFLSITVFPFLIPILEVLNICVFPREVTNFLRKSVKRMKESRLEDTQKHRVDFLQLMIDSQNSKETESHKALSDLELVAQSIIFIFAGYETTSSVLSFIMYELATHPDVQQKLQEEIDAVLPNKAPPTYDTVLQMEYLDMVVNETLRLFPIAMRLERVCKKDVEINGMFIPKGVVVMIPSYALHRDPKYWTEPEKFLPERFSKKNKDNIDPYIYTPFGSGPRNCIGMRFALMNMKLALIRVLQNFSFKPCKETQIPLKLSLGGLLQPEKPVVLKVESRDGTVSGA

Biological target: T1, CYP3A4 (Homo sapiens, UniProt P08684)
T1 construct: purchased Cypex; host or cells: bactosomes (bacterial membranes)
Experiment: Cytochrome p450 inhibition, bactosomes, fluorogenic substrates 7BQ and DEF
Format: in vitro ADME
Conditions: substrate 7BQ
Method: The assay was designed to evaluate inhibition on cytochrome P450 (CYP) 3A4, 2C9, 2C19, 1A2 and 2D6 enzymes from bactosomes source using fluorogenic substrates. Compound (compound of Formula (I) or Comparator Compound) was dissolved in methanol at 1.65 mM. Daughter solutions were prepared in methanol at 660, 264, 106, 42, 17, 6.8, 2.7, 1.1 and 0.43 μM. NADPH cofactor was prepared with Glucose-6-phosphate (7.8 mg), Glucose-6-phosphate dehydrogenase (6 units), NADP (1.7 mg) per 1 mL in NaHCO3 2%. […]

How did the IC50 turn out when O=C(OCOC(=O)[C@H]1CCCN1C(=O)CCCCC(=O)N1CCC[C@@H]1C(=O)O)C1CCOCC1 [mono-ester derivative, (R)-1-(6-oxo-6-((R)-2-((((tetrahydro-2H-pyran-4-carbonyl)oxy)methoxy)carbonyl)pyrrolidin-1-yl)hexanoyl)pyrrolidine-2-carboxylic acid] was run?
Its IC50 is greater than 33 µM.
